Values from PubChem BioAssay AID686938 (Drosophila RNAi Screening Center, 2013).

Test: 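Fly genes required for calcium entry once internal stores are emptied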 (primary screen)
Cells: Drosophila S2R+ cells
Reagents: long dsRNA against Drosophila genes, about 0.25 µg dsRNA per well, roughly 10,000 cells
Time to read-out: 5 days of knock-down before the calcium assay
Challenge: thapsigargin (SERCA pump blocker) to empty calcium stores; entry signal taken 4 min after adding it
Read-out: 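Duplicate raw fluo-4 intensities per well from a plate reader, at rest and four minutes after thapsigargin emptied calcium stores; entry-to-rest ratio filled for only some wells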
Direction: calcium entry signal: higher = stronger calcium signal after store depletion; entry to resting ratio: higher = more calcium entry relative to resting level; resting calcium signal: higher = higher resting calcium signal
Units: calcium entry signal in fluorescence units; resting calcium signal in fluorescence units
Active means: 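Called when the plate z-score of the entry-to-rest ratio, mean of duplicates, falls below −3; wells with low overall dye signal (Fmax z below −2) or more than five off-targets excluded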
Calls: active = strongly reduced calcium entry; inactive = no strong reduction
In all, the deposit lists about 23,000 reagents; this is a random part of those with a known target gene and a result. In the full data, 75 (0.33%) are marked active. 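Raw plate signals without normalisation; calls rest on plate z-scores that were not deposited; ratio present for only 364 wells.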 Entries without a mark were called inactive. Not given: the dose of the treatment.

CG7448 (retired record) [DRSC11828] → calcium entry signal, replicate 1: 4.07e7; calcium entry signal, replicate 2: 4.75e7; resting calcium signal, replicate 1: 1.93e7; resting calcium signal, replicate 2: 3.02e7
CG7448 (retired record) [DRSC22485] → calcium entry signal, replicate 1: 4.37e7; calcium entry signal, replicate 2: 3.55e7; resting calcium signal, replicate 1: 2.20e7; resting calcium signal, replicate 2: 1.63e7
CadN (Cadherin-N) [DRSC03286] → calcium entry signal, replicate 1: 5.12e7; calcium entry signal, replicate 2: 3.94e7; resting calcium signal, replicate 1: 2.26e7; resting calcium signal, replicate 2: 1.80e7
foi (fear-of-intimacy) [DRSC10719] → calcium entry signal, replicate 1: 3.04e7; calcium entry signal, replicate 2: 3.76e7; resting calcium signal, replicate 1: 1.53e7; resting calcium signal, replicate 2: 1.81e7
CG14232 [DRSC19588] → calcium entry signal, replicate 1: 2.78e7; calcium entry signal, replicate 2: 2.44e7; resting calcium signal, replicate 1: 1.70e7; resting calcium signal, replicate 2: 1.19e7
CG18508 [DRSC18155] → calcium entry signal, replicate 1: 4.11e7; calcium entry signal, replicate 2: 5.72e7; entry to resting ratio: 2.1; resting calcium signal, replicate 1: 1.95e7; resting calcium signal, replicate 2: 2.26e7
dsx (doublesex) [DRSC12649] → calcium entry signal, replicate 1: 2.44e7; calcium entry signal, replicate 2: 3.16e7; resting calcium signal, replicate 1: 1.19e7; resting calcium signal, replicate 2: 1.38e7
dsx (doublesex) [DRSC16934] → calcium entry signal, replicate 1: 2.29e7; calcium entry signal, replicate 2: 6.65e7; resting calcium signal, replicate 1: 9.96e6; resting calcium signal, replicate 2: 3.13e7
dsx (doublesex) [DRSC21495] → calcium entry signal, replicate 1: 3.64e7; calcium entry signal, replicate 2: 4.13e7; resting calcium signal, replicate 1: 1.96e7; resting calcium signal, replicate 2: 1.81e7
Cbs (Cystathionine beta-synthase) [DRSC20553] → calcium entry signal, replicate 1: 3.68e7; calcium entry signal, replicate 2: 3.39e7; resting calcium signal, replicate 1: 1.74e7; resting calcium signal, replicate 2: 1.65e7
CG15111 [DRSC21467] → calcium entry signal, replicate 1: 2.57e7; calcium entry signal, replicate 2: 3.06e7; resting calcium signal, replicate 1: 1.30e7; resting calcium signal, replicate 2: 1.34e7
Antdh (Antennal dehydrogenase) [DRSC20307] → calcium entry signal, replicate 1: 3.15e7; calcium entry signal, replicate 2: 3.53e7; resting calcium signal, replicate 1: 1.72e7; resting calcium signal, replicate 2: 1.80e7
CG32170 [DRSC09452] → calcium entry signal, replicate 1: 3.33e7; calcium entry signal, replicate 2: 4.93e7; resting calcium signal, replicate 1: 1.68e7; resting calcium signal, replicate 2: 2.00e7
CG4424 [DRSC15576] → calcium entry signal, replicate 1: 3.55e7; calcium entry signal, replicate 2: 2.99e7; resting calcium signal, replicate 1: 1.61e7; resting calcium signal, replicate 2: 1.30e7

Sorted by “resting calcium signal, replicate 2” (ascending): some entries from above.
dsx (doublesex) [DRSC21495] → calcium entry signal, replicate 1: 3.64e7; calcium entry signal, replicate 2: 4.13e7; resting calcium signal, replicate 1: 1.96e7; resting calcium signal, replicate 2: 1.81e7
dsx (doublesex) [DRSC16934] → calcium entry signal, replicate 1: 2.29e7; calcium entry signal, replicate 2: 6.65e7; resting calcium signal, replicate 1: 9.96e6; resting calcium signal, replicate 2: 3.13e7
